Data source: PubChem BioAssay AID1259308 (NCATS, 2017)

Screen: 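Knock-downs that increase output of a recombinant reporter protein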 (primary screen)
Cells: human HEK293 embryonic kidney cells stably expressing firefly luciferase (HEK-CMV-Luc2-Hygro)
Reagents: single siRNA against human genes, 0.8 pmol siRNA per well
Duration: 72 h
Detection: 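Reporter luminescence and viable-cell signal on separate replicate plates, given as percent of non-targeting control and median/MAD z-scores, plus per-cell luciferase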
Scale: total luciferase, z-score and total luciferase, % of control: higher = more reporter protein produced; luciferase per cell, z-score: higher = more reporter output per viable cell; viable cells, % of control: higher = more viable cells
Call rule: 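An siRNA counts as active if its total luciferase robust z-score exceeds 3; genes with two or more such siRNAs out of three were retested with fresh siRNAs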
Meaning of the calls: active = raised luciferase; inactive = no rise
In all, the deposit lists about 59,000 reagents; this is an unselected part. About 1,510 of them (2.6%) count as active. 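Calls use total luciferase alone and ignore viability, so some active siRNAs may act by altering cell number.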 Reagents against one gene are numbered here.

gene,siRNA no.,"total luciferase, z-score","total luciferase, % of control","luciferase per cell, z-score","viable cells, % of control",outcome
GTF3C2 (general transcription factor IIIC subunit 2),1,-1.32,55.7,-1.41,90.2,inactive
GTF3C2 (general transcription factor IIIC subunit 2),2,-0.201,77.9,-0.653,103,inactive
GTF3C2 (general transcription factor IIIC subunit 2),3,-0.954,62.9,-0.239,74.9,inactive
ZNF396 (zinc finger protein 396),1,0.359,89,0.0223,98.9,inactive
ZNF396 (zinc finger protein 396),2,2.45,131,1.95,87.3,inactive
ZNF396 (zinc finger protein 396),3,-1.65,49.1,-1.22,75.7,inactive
LNCRI (lncRNA radiation induced regulator of PLK1 and RAD51),1,0.151,84.9,0.0571,93.4,inactive
LNCRI (lncRNA radiation induced regulator of PLK1 and RAD51),2,1.87,119,1.91,80.6,inactive
LNCRI (lncRNA radiation induced regulator of PLK1 and RAD51),3,0.963,101,-0.152,117,inactive
ZNF395 (zinc finger protein 395),1,1.03,102,0.595,97.9,inactive
ZNF395 (zinc finger protein 395),2,-1.27,56.6,-1.09,84.4,inactive
ZNF395 (zinc finger protein 395),3,-2.08,40.5,-1.1,60.4,inactive

A portion of the results above, as a working copy:
gene,siRNA no.,"total luciferase, z-score","total luciferase, % of control","luciferase per cell, z-score","viable cells, % of control",outcome
GTF3C2 (general transcription factor IIIC subunit 2),2,-0.201,77.9,-0.653,103,inactive
GTF3C2 (general transcription factor IIIC subunit 2),3,-0.954,62.9,-0.239,74.9,inactive

Additional entries follow:
gene,siRNA no.,"total luciferase, z-score","total luciferase, % of control","luciferase per cell, z-score","viable cells, % of control",outcome
EZH2 (enhancer of zeste 2 polycomb repressive complex 2 subunit),1,1.74,116,1.02,99.4,inactive
EZH2 (enhancer of zeste 2 polycomb repressive complex 2 subunit),2,-1.62,49.7,-2.43,106,inactive
EZH2 (enhancer of zeste 2 polycomb repressive complex 2 subunit),3,0.0713,83.3,1.05,70.5,inactive
GLIPR1L2 (GLIPR1 like 2),1,-0.832,65.3,-1.23,101,inactive
GLIPR1L2 (GLIPR1 like 2),2,-0.376,74.4,-0.129,86,inactive
GLIPR1L2 (GLIPR1 like 2),3,-0.033,81.2,-0.364,99.9,inactive
AAMP (angio associated migratory cell protein),1,-1.12,59.6,-1.03,87.2,inactive
AAMP (angio associated migratory cell protein),2,-0.843,65.1,-0.732,88.2,inactive
AAMP (angio associated migratory cell protein),3,-0.416,73.6,-0.283,88.6,inactive
MMD (monocyte to macrophage differentiation associated),1,1.8,118,2.09,75.9,inactive
MMD (monocyte to macrophage differentiation associated),2,-0.806,65.9,-0.509,84.1,inactive
MMD (monocyte to macrophage differentiation associated),3,-1.4,54.1,-1.37,86.7,inactive
